Article PMC8191290, “Substrate specificities and reaction kinetics of the yeast oligosaccharyltransferase isoforms” (The Journal of Biological Chemistry, 2021)
No constants are given. Whether binding was seen depends on the method and setting. Binding seen in cells or lysates may run through a third protein. Some results given as binding are weak or reduced against the parent protein; the word gives no strength. Tags and fused reporters may be left off the sequences shown.

B1: Wbp1p (protein, UniProt P33767 21-430)
chain: TQTSRTLVLYDQSTEPLEEYSVYLKDLEQRNYKLEYLDINSTSTTVDLYDKEQRLFDNIIVFPTKGGKNLARQIPVKQLIKFFENEGNILCMSSPGAVPNTIRLFLNELGIYPSPKGHVIRDYFSPSSEELVVSSNHLLNKYVYNARKSEDFVFGESSAALLENREQIVPILNAPRTSFTESKGKCNSWTSGSQGFLVVGFQNLNNARLVWIGSSDFLKNKNQDSNQEFAKELLKWTFNEKSVIKSVHAVHSHADGTSYDEEPYKIKDKVIYSVGFSEWNGEEWLPHIADDIQFELRQVDPYYRLTLSPSGNDSETQYYTTGEFILPDRHGVFTFLTDYRKIGLSFTTDKDVKAIRHLANDEYPRSWEISNSWVYISAICGVIVAWIFFVVSFVTTSSVGKKLETFKKTN
modifications: N-glycans at N60 and N332 (fully and hypoglycosylated forms)
B2: Ost2p (protein, UniProt P46964 1-130)
chain: MAKAPKANTPKVTSTSSAVLTDFQETFKTSKRAYFAQIEKYPKLKLIDTFCFFLVLLGVIQCTFIILIRDNFPFNAFLAGFIICVGQFVLLMSLRLQLCNSFPGISKNRAFAEFIVASLILHFVCLHFIN
B3: Ost1p (protein, UniProt P41543 23-476)
chain: AQYEPPATWENVDYKRTIDVSNAYISETIEITIKNIASEPATEYFTAFESGIFSKVSFFSAYFTNEATFLNSQLLANSTTAPGDDGESEIRYGIIQFPNAISPQEEVSLVIKSFYNTVGIPYPEHVGMSEEQHLLWETNRLPLSAYDTKKASFTLIGSSSFEEYHPPNDESLLGKANGNSFEFGPWEDIPRFSSNETLAIVYSHNAPLNQVVNLRRDIWLSHWASTIQFEEYYELTNKAAKLSKGFSRLELMKQIQTQNMRQTHFVTVLDMLLPEGATDHYFTDLVGLVSTSHAERDHFFIRPRFPIFGGWNYNFTVGWTNKLSDFLHVSSGSDEKFVASIPILNGPPDTVYDNVELSVFLPEGAEIFDIDSPVPFTNVSIETQKSYFDLNKGHVKLTFSYRNLISQVANGQVLIKYDYPKSSFFKKPLSIACYIFTALMGVFVLKTLNMNVTN
modifications: N-glycans at N99 and N217 (fully and hypoglycosylated forms)
B4: Ost5p (protein, UniProt Q92316 1-86)
chain: MTYEQLYKEFHSSKSFQPFIHLDTQPKFAICGLIVTLAVLSSALFAVGSKSSYIKKLFFYTILSVIGSLFAGLTTVFASNSFGVYV
B5: Stt3p (protein, UniProt P39007 1-718)
chain: MGSDRSCVLSVFQTILKLVIFVAIFGAAISSRLFAVIKFESIIHEFDPWFNYRATKYLVNNSFYKFLNWFDDRTWYPLGRVTGGTLYPGLMTTSAFIWHALRNWLGLPIDIRNVCVLFAPLFSGVTAWATYEFTKEIKDASAGLLAAGFIAIVPGYISRSVAGSYDNEAIAITLLMVTFMFWIKAQKTGSIMHATCAALFYFYMVSAWGGYVFITNLIPLHVFLLILMGRYSSKLYSAYTTWYAIGTVASMQIPFVGFLPIRSNDHMAALGVFGLIQIVAFGDFVKGQISTAKFKVIMMVSLFLILVLGVVGLSALTYMGLIAPWTGRFYSLWDTNYAKIHIPIIASVSEHQPVSWPAFFFDTHFLIWLFPAGVFLLFLDLKDEHVFVIAYSVLCSYFAGVMVRLMLTLTPVICVSAAVALSKIFDIYLDFKTSDRKYAIKPAALLAKLIVSGSFIFYLYLFVFHSTWVTRTAYSSPSVVLPSQTPDGKLALIDDFREAYYWLRMNSDEDSKVAAWWDYGYQIGGMADRTTLVDNNTWNNTHIAIVGKAMASPEEKSYEILKEHDVDYVLVIFGGLIGFGGDDINKFLWMIRISEGIWPEEIKERDFYTAEGEYRVDARASETMRNSLLYKMSYKDFPQLFNGGQATDRVRQQMITPLDVPPLDYFDEVFTSENWMVRIYQLKKDDAQGRTLRDVGELTRSSTKTRRSIKRPELGLRV
modifications: N-glycan at N539 (most abundant Man8GlcNAc2)
B6: Swp1p (protein, UniProt Q02795 20-286)
chain: YVAQDVHVSFPSTAGKSRVMIGKVEPRIGIDETVPTTITVEDPNEVIQVNFAIESTNKPFQNTLLIGLPNKNLEMAFEPEIKDNGKLSMYKYRIDLAKLDAALLQEASRSPEPIKATLILASSTAKPKENLFREILQLNLNFDVDHSDSSLVDKFGIKPEIHHIFHAEPKRVAKPIAVIFVLIIFITILSLIVTWLNSCAAAFNNIPTGVTAVYFLGFIATIVGFEVIFARYYLGTSIFETLFSSLYLGAPGLLTSTKFLRSFGQTI
B7: Ost3p (protein, UniProt P48439 23-350)
chain: MSSNRLLKLANKSPKKIIPLKDSSFENILAPPHENAYIVALFTATAPEIGCSLCLELESEYDTIVASWFDDHPDAKSSNSDTSIFFTKVNLEDPSKTIPKAFQFFQLNNVPRLFIFKPNSPSILDHSVISISTDTGSERMKQIIQAIKQFSQVNDFSLHLPMDWTPIITSTIITFITVLLFKKQSKLMFSIISSRIIWATLSTFFIICMISAYMFNQIRNTQLAGVGPKGEVMYFLPNEFQHQFAIETQVMVLIYGTLAALVVVLVKGIQFLRSHLYPETKKAYFIDAILASFCALFIYVFFAALTTVFTIKSPAYPFPLLRLSAPFK
B8: Ost6p (protein, UniProt Q03723 25-332)
chain: TASHNIDDILQLKDDTGVITVTADNYPLLSRGVPGYFNILYITMRGTNSNGMSCQLCHDFEKTYHAVADVIRSQAPQSLNLFFTVDVNEVPQLVKDLKLQNVPHLVVYPPAESNKQSQFEWKTSPFYQYSLVPENAENTLQFGDFLAKILNISITVPQAFNVQEFVYYFVACMVVFIFIKKVILPKVTNKWKLFSMILSLGILLPSITGYKFVEMNAIPFIARDAKNRIMYFSGGSGWQFGIEIFSVSLMYIVMSALSVLLIYVPKISCVSEKMRGLLSSFLACVLFYFFSYFISCYLIKNPGYPIVF

What follows are binders tested against T1, Ost4p tagged C-terminally with the 1D4 epitope (S. cerevisiae) (UniProt Q99380) (assay: co-IP + SEC; DDM/CHS-solubilized yeast membranes bound to Rho-1D4 antibody-coupled sepharose beads through Ost4p-1D4, eluted with 1D4 peptide, then Superose 6 Increase size-exclusion chromatography (peak at ~14 ml, ~280 kDa), 4 °C, 50 mM Hepes pH 7.5, 150 mM NaCl; subunits seen by silver-stained SDS-PAGE; strains expressing only Ost3p or only Ost6p (also OST3 strain with alg6 deletion)).
T1 sequence: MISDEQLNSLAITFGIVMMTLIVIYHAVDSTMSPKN

binding, binds:
B1, B2, B3, B4, B5, B6, B7, B8
